Source: publication PMC10394004
No constants are given. Whether binding was seen depends on the method and setting. In cells and extracts the contact can be indirect. Binding can be weak; no strength is given. Tags and fused reporters may be left off the sequences shown.

The chains behind the UniProt entries cited, without tags or fusion partners. Where a name states a change or a piece, a line headed by the entry shows the natural chain unless it says otherwise.
UniProt Q7JRM2: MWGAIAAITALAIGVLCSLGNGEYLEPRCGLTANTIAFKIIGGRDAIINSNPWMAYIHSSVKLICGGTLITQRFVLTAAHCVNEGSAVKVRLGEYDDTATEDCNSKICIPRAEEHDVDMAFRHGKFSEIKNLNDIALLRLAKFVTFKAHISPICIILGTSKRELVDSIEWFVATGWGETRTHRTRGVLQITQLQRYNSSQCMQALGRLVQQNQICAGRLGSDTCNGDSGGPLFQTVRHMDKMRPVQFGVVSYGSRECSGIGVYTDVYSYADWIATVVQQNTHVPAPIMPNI

Legend:
[1] = molecular target: T1, DIAP1-EGFP (Drosophila inhibitor of apoptosis protein 1 fused with EGFP) (Drosophila) (UniProt Q24306); test: co-IP; Drosophila S2 cells co-expressing the EGFP bait and HA-tagged Erasp; lysis in 50 mM Tris-HCl pH 8.0, 150 mM NaCl, 1% NP40, 1 mM DTT; precipitation with anti-EGFP antibody and protein A agarose; Erasp detected by its HA epitope
T1 sequence: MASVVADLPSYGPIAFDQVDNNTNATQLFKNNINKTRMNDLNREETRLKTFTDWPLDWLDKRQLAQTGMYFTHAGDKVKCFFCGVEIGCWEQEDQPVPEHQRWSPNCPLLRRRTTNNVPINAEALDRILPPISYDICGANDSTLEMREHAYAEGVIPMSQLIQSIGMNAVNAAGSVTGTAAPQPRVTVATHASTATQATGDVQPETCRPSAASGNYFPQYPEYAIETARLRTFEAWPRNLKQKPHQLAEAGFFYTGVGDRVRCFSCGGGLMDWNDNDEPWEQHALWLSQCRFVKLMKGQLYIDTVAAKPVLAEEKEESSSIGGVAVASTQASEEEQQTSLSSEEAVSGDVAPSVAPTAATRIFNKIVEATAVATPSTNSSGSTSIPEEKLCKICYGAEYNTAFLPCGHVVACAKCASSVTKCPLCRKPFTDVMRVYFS

GST-DIAP1 (Drosophila) = molecular target: T2, GST-DIAP1 (Drosophila) (UniProt Q24306); test: pull-down; GST fusion proteins on GSH-Sepharose beads incubated with lysate of cells expressing HA-tagged Erasp (50 mM Tris-HCl pH 8.0, 150 mM NaCl, 1% Triton X-100, 0.1% SDS, 0.5% sodium deoxycholate) for 4 h at 4 °C; anti-HA immunoblot; only the target purified
T2 sequence: T1 sequence

- binding [1]: binds
- binding (GST-DIAP1 (Drosophila)): binds
Substance: HA-tagged Erasp (ER stress-associated serine protease, CG30090) (from UniProt Q7JRM2) (enzyme)
